From patent US7553868B2, “Thiophene carboxamides as inhibitors of the enzyme IKK-2” (AstraZeneca AB, priority 2003, dated 2009)
Some results were stated once for a whole list of compounds, not compound by compound.

Target: T1, IKK-2 (Homo sapiens, UniProt O14920)
T1 sequence (O14920 1-756): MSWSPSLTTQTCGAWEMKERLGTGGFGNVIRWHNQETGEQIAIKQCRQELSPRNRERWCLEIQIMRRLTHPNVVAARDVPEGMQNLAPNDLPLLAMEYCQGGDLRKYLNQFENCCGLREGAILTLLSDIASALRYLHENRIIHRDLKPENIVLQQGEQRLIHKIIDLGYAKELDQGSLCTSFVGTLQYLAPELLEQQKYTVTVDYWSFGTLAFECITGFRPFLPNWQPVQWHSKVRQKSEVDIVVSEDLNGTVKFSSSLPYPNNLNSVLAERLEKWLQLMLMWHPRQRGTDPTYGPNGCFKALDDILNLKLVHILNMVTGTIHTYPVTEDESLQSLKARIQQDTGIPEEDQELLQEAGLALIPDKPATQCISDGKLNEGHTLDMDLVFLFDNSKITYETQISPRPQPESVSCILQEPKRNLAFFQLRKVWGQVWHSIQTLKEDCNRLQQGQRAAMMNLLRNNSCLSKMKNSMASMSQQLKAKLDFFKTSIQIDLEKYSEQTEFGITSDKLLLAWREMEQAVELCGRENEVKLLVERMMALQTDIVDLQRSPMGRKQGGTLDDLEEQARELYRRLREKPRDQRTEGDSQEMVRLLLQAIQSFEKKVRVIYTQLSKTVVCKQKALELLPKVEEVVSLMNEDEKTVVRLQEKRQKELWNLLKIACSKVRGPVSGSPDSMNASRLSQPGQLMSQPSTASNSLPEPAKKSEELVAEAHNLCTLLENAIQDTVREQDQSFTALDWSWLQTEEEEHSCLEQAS
Experiment: IKK-2 filter kinase assay
Assay type: biochemical
Settings: read-out: IC50 values, inhibition of IKK-2
Experimental: IKK-2 Filter Kinase Assay
The test compounds were dissolved to 10 mM in dimethylsulphoxide (DMSO). The compounds were then diluted 1 in 40 in kinase buffer (50 mM Tris, pH 7.4 containing 0.1 mM EGTA, 0.1 mM sodium orthovanadate and 0.1% β-mercaptoethanol). 1 in 3 serial dilutions were made from this solution with 2.5% DMSO in kinase buffer. 20 μl of compound dilution was added to wells of a 96 well plate in duplicate. 20 μl 2.5% DMSO in kinase buffer instead of compound was added to control wells (0% inhibition). […] 10 μl of a mixture of magnesium acetate, unlabelled ATP, and ^33P-labelled ATP was added to each well made such that the final concentration was 10 mM magnesium acetate, 1 μM ATP and 0.1 μCi ^33P ATP. […] The final reaction volume was 50 μl.
The kinase reactions were incubated at 21° C. for 80 minutes and the reaction stopped by precipitating the protein by the addition of an equal volume (50 μl) of 20% trichloroacetic acid (TCA). The precipitate was allowed to form for 10 minutes and then filtered onto a GF/C unifilter 96 well plate. Each filter was washed twice with approximately 1 ml 2% TCA. The filter plate was dried at 30-40° C. for 60 minutes, 20 μl scintillant was added to each well and the plate sealed and radioactivity counted on a Packard Topcount microplate scintillation counter.

IC50, < 10 µM:
CN(CCOc1ccccc1-c1cc(C(N)=O)c(NC(N)=O)s1)Cc1ccccc1Cl [Example 1, 2-[(Aminocarbonyl)amino]-5-[2-{2-[{N-(2-chlorobenzyl)-N-methyl}amino]ethoxy}phenyl]-thiophene-3-carboxamide]
CN(CCOc1ccccc1-c1cc(C(N)=O)c(NC(N)=O)s1)Cc1ccc(Cl)cc1 [Example 2, 2-[(Aminocarbonyl)amino]-5-[2-{2-[{N-(4-chlorobenzyl)-N-methyl}amino]ethoxy}phenyl]-thiophene-3-carboxamide]
NC(=O)Nc1sc(-c2ccccc2OCCNCc2ccccc2)cc1C(N)=O [Example 3, 2-[(Aminocarbonyl)amino]-5-[2-{2-(benzylamino)ethoxy}phenyl]thiophene-3-carboxamide]
NC(=O)Nc1sc(-c2ccccc2OCCN2Cc3ccccc3C2)cc1C(N)=O [Example 5, 2-[(Aminocarbonyl)amino]-5-[2-{2-(1,3-dihydro-2H-isoindol-2-yl)ethoxy}phenyl]thiophene-3-carboxamide]
NC(=O)Nc1sc(-c2ccccc2OC2CCN(Cc3ccc(F)cc3)C2)cc1C(N)=O (stereo not drawn) [Example 6, 2-[(Aminocarbonyl)amino]-5-[2-{[1-(4-fluorobenzyl)pyrrolidin-3-yl]oxy}phenyl]thiophene-3-carboxamide]
NC(=O)Nc1sc(-c2ccccc2OC2CCN(Cc3ccccc3)C2)cc1C(N)=O (stereo not drawn) [Example 7, 2-[(Aminocarbonyl)amino]-5-[2-{[1-benzylpyrrolidin-3-yl]oxy}phenyl]thiophene-3-carboxamide]
NC(=O)Nc1sc(-c2ccccc2OCCNCc2ccc(F)cc2)cc1C(N)=O [Example 8, 2-[(Aminocarbonyl)amino]-5-[2-{2-[(4-fluorobenzyl)amino]ethoxy}phenyl]thiophene-3-carboxamide]
NC(=O)Nc1sc(-c2ccccc2OCCNCc2cccnc2)cc1C(N)=O [Example 9, 2-[(Aminocarbonyl)amino]-5-[2-{2-(pyridin-3-ylmethylamino)ethoxyl}phenyl]thiophene-3-carboxamide]
NC(=O)Nc1sc(-c2ccccc2OCCNCc2ccccn2)cc1C(N)=O [Example 10, 2-[(Aminocarbonyl)amino]-5-[2-{2-(pyridin-2-ylmethylamino)ethoxy}phenyl]thiohene-3-carboxamide]
NC(=O)Nc1sc(-c2ccccc2OCCNCc2ccncc2)cc1C(N)=O [Example 11, 2-[(Aminocarbonyl)amino]-5-[2-{2-(pyridin-4-ylmethylamino)ethoxy}phenyl]thiophene-3-carboxamide]
CN(CCOc1ccccc1-c1cc(C(N)=O)c(NC(N)=O)s1)Cc1cccnc1 [Example 12, 2-[(Aminocarbonyl)amino]-5-[2-[2-{N-(pyridin-3-ylmethyl)-N-methylamino]ethoxy}phenyl]thiophene-3-carboxamide]
NC(=O)Nc1cc(-c2ccccc2OCCN2Cc3ccccc3C2)sc1C(N)=O [Example 13, 3-[(Aminocarbonyl)amino]-5-[2-{2-(1,3-dihydro-2H-isoindol-2-yl)ethoxy}phenyl]thiophene-2-carboxamide]
